Measurements taken from paper PMC6964919.
No constants are given. Whether binding was seen depends on the method and setting. Binding seen in cells or lysates may run through a third protein. These calls come from enrichment with a bait or labelling near it, and not all partners need be listed.

target: GFP-tagged G3BP1 (Ras-GTPase activating SH3 domain binding protein 1); assay: affinity purification with mass spectrometry

Binder	binding
PABP2 (protein, UniProt Q8CCS6 1-302) MAAAAAAAAAAGAAGGRGSGPGRRRHLVPGAGGEAGEGDPGGAGDYGNGLESEELEPGELLPEPEPEEEPPRPRAPPGAPGPGPGSGAPGSQEEEEEPGLVEADPGDGAIEDPELEAIKARVREMEEEAEKLKELQNEVEKQMNMSPPPGNAGPVIMSLEEKMEADARSIYVGNVDYGATAEELEAHFHGCGSVNRVTILCDKFSGHPKGFAYIEFSDKESVRTSLALDESLFRGRQIKVIPKRTNRPGISTTDRGFPRSRYRARTTNYNSSRSRFYSGFNSRPRGRIYRGRARATSWYSPY	binds
G3BP2 (protein, UniProt P97379 1-482) MVMEKPSPLLVGREFVRQYYTLLNKAPEYLHRFYGRNSSYVHGGVDASGKPQEAVYGQNDIHHKVLSLNFSECHTKIRHVDAHATLSDGVVVQVMGLLSNSGQPERKFMQTFVLAPEGSVPNKFYVHNDMFRYEDEVFGDSEPELDEESEDEVEEEQEDRQPSPEPVQENANSAYYDAHPVTNGIEEPLEESSHEPEPEPESETKTEELKPQVEEKHLEELEEKSATPPPAEPASLPQEPPKAFSWASVTSKNLPPSGTVSSSGIPPHVKAPVSQPRVDAKPEVQSQPPRVREQRPRERPGFPPRGPRPGRGDMEQNDSDNRRIIRYPDSHQLFVGNLPHDIDENELKEFFMSFGNVVELRINTKGVGGKLPNFGFVVFDDSEPVQRILIAKPIMFRGEVRLNVEEKKTRAARERETRGGGDDRRDIRRNDRGPGGPRGIVGGGMMRDRDGRGPPPRGGMTQKLGSGRGTGQMEGRFTGQRR	binds
Sf3b1 (protein, UniProt Q99NB9 1-1304) MAKIAKTHEDIEAQIREIQGKKAALDEAQGVGLDSTGYYDQEIYGGSDSRFAGYVTSIAATELEDDDDDYSSSTSLLGQKKPGYHAPVALLNDIPQSTEQYDPFAEHRPPKIADREDEYKKHRRTMIISPERLDPFADGGKTPDPKMNARTYMDVMREQHLTKEEREIRQQLAEKAKAGELKVVNGAAASQPPSKRKRRWDQTADQTPGATPKKLSSWDQAETPGHTPSLRWDETPGRAKGSETPGATPGSKIWDPTPSHTPAGAATPGRGDTPGHATPGHGGATSSARKNRWDETPKTERDTPGHGSGWAETPRTDRGGDSIGETPTPGASKRKSRWDETPASQMGGSTPVLTPGKTPIGTPAMNMATPTPGHIMSMTPEQLQAWRWEREIDERNRPLSDEELDAMFPEGYKVLPPPAGYVPIRTPARKLTATPTPLGGMTGFHMQTEDRTMKSVNDQPSGNLPFLKPDDIQYFDKLLVDVDESTLSPEEQKERKIMKLLLKIKNGTPPMRKAALRQITDKAREFGAGPLFNQILPLLMSPTLEDQERHLLVKVIDRILYKLDDLVRPYVHKILVVIEPLLIDEDYYARVEGREIISNLAKAAGLATMISTMRPDIDNMDEYVRNTTARAFAVVASALGIPSLLPFLKAVCKSKKSWQARHTGIKIVQQIAILMGCAILPHLRSLVEIIEHGLVDEQQKVRTISALAIAALAEAATPYGIESFDSVLKPLWKGIRQHRGKGLAAFLKAIGYLIPLMDAEYANYYTREVMLILIREFQSPDEEMKKIVLKVVKQCCGTDGVEANYIKTEILPPFFKHFWQHRMALDRRNYRQLVDTTVELANKVGAAEIISRIVDDLKDEAEQYRKMVMETIEKIMGNLGAADIDHKLEEQLIDGILYAFQEQTTEDSVMLNGFGTVVNALGKRVKPYLPQICGTVLWRLNNKSAKVRQQAADLISRTAVVMKTCQEEKLMGHLGVVLYEYLGEEYPEVLGSILGALKAIVNVIGMHKMTPPIKDLLPRLTPILKNRHEKVQENCIDLVGRIADRGAEYVSAREWMRICFELLELLKAHKKAIRRATVNTFGYIAKAIGPHDVLATLLNNLKVQERQNRVCTTVAIAIVAETCSPFTVLPALMNEYRVPELNVQNGVLKSLSFLFEYIGEMGKDYIYAVTPLLEDALMDRDLVHRQTASAVVQHMSLGVYGFGCEDSLNHLLNYVWPNVFETSPHVIQAVMGALEGLRVAIGPCRMLQYCLQGLFHPARKVRDVYWKIYNSIYIGSQDALIAHYPRIYNDDKNTYIRYDLDYIL	binds
PUM3 (protein, UniProt Q8BKS9 1-647) MEVKGKKKFTGKSPQTSQGKNKFHKNSESSSSKTFPRKAVKEGGPKVTSKNFEKGATKPGKKGVKQFKNKPQGGKGPKDKFQKANKFSKKRKFQPDGESDESGAKKPKWDDFKKKKKELKQSRQLSDKTNYDIVVRAKHIWESLRRKDCDKEKRVKLMSDLQKLIQGKIKTIAFAHDSTRVIQCFIQYGNEEQRKQAFQELQGDLVELSKAKYSRNIVKKFLMYGSKPQVAEIIRSFKGHVRKMLRHSEASAIVEYAYNDKAILEQRNMLTEELYGNTFQLYKSADHPTLDKVLELQPAKLELIMDEMKQILTPMAQKEAVIKHSLVHKVFLDFFTYAPPKPRSELIEAIREAVVYLAHTHDGARVAMHCLWHGTPKDRKVIVKTMKTYVEKVANGQYSHLVLLAAFDCIDDTKLVKQIIISEIISSLPSIVNDKYGRKVLLYLMSPRDPAHTVPELIELLQKGDGNAHSKKDTAIRRRELLESISPALLSYLQGHTQEVVLDKSACVLVSDMLGSATGDVQPAMDAIASLAAAELHPGGKDGELHVAEHPAGHLVLKWLLEQDKKMKESGKEGCFAKTLVERVGMKNLKSWASINRGAIILSSLLQSCDQEVVNKVKGGLKPLIPTLEKNKSSSRGIQTLLEKLTA	binds

Now from value to binder:

binding	Binder
binds	eIF2Bepsilon (protein, UniProt Q8CHW4 1-717) MAATAAVPGAAAGRASKRGGGGSGGGGTQGAEEEPPPPLQAVLVADSFNRRFFPISKDQPRVLLPLANVALIDYTLEFLTATGVQETFVFCCWKAAQIKEHLQKSKWCHPTSPNVVRIITSELYRSLGDVLRDVDAKALVRSDFLLIYGDVISNINICRALEEHRLRRKLEKNVSVMTMVFKESSPSHPTRCHEDNVVMAVDSATNRVLHFQKTQGLRRFSFPLSLFQGSGDGVEIRYDLLDCHISICSPQVAQLFTDNFDYQTRDDFVRGILMNEEVLGNQIHLHVTTREYGARVSNLHMYSAVCADVIRRWVYPLTPEVNFTDSTTQSYTHSRHNIYRGPEVSLGHGSVLEENVLLGAGTVIGSNCSITNSVIGPNCHIGDNVVLDQAYLWQGVRVAAGAQIHQSLLCDRAEVKERVKLKPYCVLTSQVVVGPDITLPEGSVISLHPPDAEEDEDDGQFSDDSGADQEKEKVKLKGYNPAEVGLEGQGYLWKAEGVNSKEDEELRQSLWGLMIKTEEESETESEGSVDPEELDSRAGSPQLDDIRVFQNEVLGTLQRGREENISCENLVLEINSLKHAYNISLKEVMQVLTLVVLEFPLQQVDGLLDPNRYCALLLPLLKAWSPVLRNYIKRAADHLEALAAIEDFFLEHETLVTSMAKVLMAFYQLEILAEETILSWFSQRDTTDEGQQLRKNQQLQRFIQWLREAEEESSEDD
binds	ZC3HAV1 (protein, UniProt Q3UPF5 1-996) MTDPEVFCFITKILCAHGGRMTLEELLGEISLPEAQLYELLKAAGPDRFVLLETGDQAGITRSVVATTRARVCRRKYCQRPCDSLHLCKLNLLGRCHYAQSQRNLCKYSHDVLSEQNFQVLKNHELSGLNQEELAVLLVQSDPFFMPEICKSYKGEGRKQICGQPQPCERLHICEHFTRGNCSYLNCLRSHNLMDRKVLAIMREHGLSSDVVQNIQDICNNKHTRRNPPSMRAPHPHRRGGAHRDRSKSRDRFHHNSLEVLSTVSPLGSGPPSPDVTGCKDPLEDVSADVTQKFKYLGTQDRAQLSSVSSKAAGVRGPSQMRASQEFLEDGDPDGLFSRNRSDSSTSRTSAAGFPLVAAQRNEAGAMKMGMPSGHHVEVKGKNEDIDRVPFLNSYIDGVTMEEATVSGILGKRATDNGLEEMILSSNHQKSVAKTQDPQTAGRITDSGQDTAFLHSKYEENPAWPGTSTHNGPNGFSQIMDETPNVSKSSPTGFGIKSAVTGGKEAVYSGVQSLRSHVLAMPGETTTPVQGSNRLPPSPLSSSTSHRVAASGSPGKSSTHASVSPASEPSRMMMMMSDPAEYSLCYIVNPVSPRMDDHGLKEICLDHLYRGCQQVNCNKNHFHLPYRWQLFILPTWMDFQDMEYIERAYCDPQIEIIVIEKHRINFKKMTCDSYPIRRLSTPSFVEKTLNSVFTTKWLWYWRNELNEYTQYGHESPSHTSSEINSAYLESFFHSCPRGVLQFHAGSQNYELSFQGMIQTNIASKTQRHVVRRPVFVSSKDVEQKRRGPDHQPVMPQADALTLFSSPQRNASTVSSNEYEFIELNNQDEEYAKISEQFKASMKQFKIVTIKRIWNQKLWDTFERKKQKMKNKTEMFLFHAVGRIHMDYICKNNFEWILHGNREIRYGKGNYFTKEAMYSHKSCSYDSRGTVMFVARVLVGSVIEGNMTLSSPPALYDSCVDTRLNPSVFVIFRKEQIYPEYVIEYMELEKEKGCIIS
binds	eIF2Balpha (protein, UniProt Q99LC8 1-305) MEDGELIEYFKSQMKGDPKMASAVAAIQTLLEFLKRDKGETLQGLRANLTYAIKTLCGVDSSVAVSSGGELFLRFISLTSLEYSDYSKCKKIMIERGELFLRRISLSRNKIANLCHTFIKDGARILTHAYSRVVLRVLEEAVAAKKRFSVYITESQPDLSGKKMAKALSHLNVPVTVVLDAAVGYIMEKADLVIVGAEGVVENGGIINKIGTNQMAVCAKAQNKPFYVVAESFKFVRLFPLNQEDVPDKFKYKADTLKSVQTGQDLKEEHPWVDYTSPSLITLLFTDLGVLTPSAVSDELIKLYL
